From paper PMC5444840
Results are given in words; binding and its absence hold for the method and conditions named. Binding calls can cover weak binding; strength is not graded here.

The binders below were run against VZV gC IgD with a C-terminal Twin-Streptavidin tag (IgD-Strep) (Varicella zoster virus, Dumas strain) (assay: SPR; screening: IgD-Strep amine-coupled on a CM5 chip (2864 RU); chemokines injected at 100 nM; both purified).

Row | Binder | binding
1 | CXCL13 (ligand, UniProt O43927 23-109) VLEVYYTSLRCRCVQESSVFIPRRFIDRIQILPRGNGCPRKEIIVWKKNKSIVCVDPQAEWIQRMMEVLRKRSSSTLPVPVFKRKIP | binds

Each binder was assayed against recombinant soluble VZV glycoprotein C ectodomain (VZV rSgC) (Varicella zoster virus, Dumas strain) (assay: SPR; binding screening, Biacore X-100: gC construct (rSgC, IgD or R2D) amine-coupled on a CM4 chip; chemokines injected at 100 nM in HBS-EP pH 7.4 at 30 ul/min, 90 s contact, 60 s dissociation; both purified).

Row | Binder | binding
2 | CXCL13 (ligand, UniProt O43927 23-109) VLEVYYTSLRCRCVQESSVFIPRRFIDRIQILPRGNGCPRKEIIVWKKNKSIVCVDPQAEWIQRMMEVLRKRSSSTLPVPVFKRKIP | binds
3 | CXCL14 (ligand, UniProt O95715 35-111) SKCKCSRKGPKIRYSDVKKLEMKPKYPHCEEKMVIITTKSVSRYRGQEHCLHPKLQSTKRFIKWYNAWNEKRRVYEE | binds
4 | CCL1 (ligand, UniProt P22362 24-96) KSMQVPFSRCCFSFAEQEIPLRAILCYRNTSSICSNEGLIFKLKRGKEACALDTVGWVQRHRKMLRHCPSKRK | binds
5 | CCL16 (ligand, UniProt O15467 24-120) QPKVPEWVNTPSTCCLKYYEKVLPRRLVVGYRKALNCHLPAIIFVTKRNREVCTNPNDDWVQEYIKDPNLPLLPTRNLSTVKIITAKNGQPQLLNSQ | binds
6 | CCL18 (ligand, UniProt P55774 21-89) AQVGTNKELCCLVYTSWQIPQKFIVDYSETSPQCPKPGVILLTKRGRQICADPNKKWVQKYISDLKLNA | binds
7 | CCL22 (ligand, UniProt O00626 25-93) GPYGANMEDSVCCRDYVRYRLPLRVVKHFYWTSDSCPRPGVVLLTFRDKEICADPRVPWVKMILNKLSQ | binds
8 | CCL28 (ligand, UniProt Q9NRJ3 20-127) SEAILPIASSCCTEVSHHISRRLLERVNMCRIQRADGDCDLAAVILHVKRRRICVSPHNHTVKQWMKVQAAKKNGKGNVCHRKKHHGKRNSNRAHQGKHETYGHKTPY | binds
9 | CXCL16 (ligand, UniProt Q9H2A7 30-205) NEGSVTGSCYCGKRISSDSPPSVQFMNRLRKHLRAYHRCLYYTRFQLLSWSVCGGNKDPWVQELMSCLDLKECGHAYSGIVAHQKHLLPTSPPISQASEGASSDIHTPAQMLLSTLQSTQRPTLPVGSLSSDKELTRPNETTIHTAGHSLAAGPEAGENQKQPEKNAGPTARTSAT | binds weakly
10 | CCL27 (ligand, UniProt Q9Y4X3 25-112) FLLPPSTACCTQLYRKPLSDKLLRKVIQVELQEADGDCHLQAFVLHLAQRSICIHPQNPSLSQWFEHQERKLHGTLPKLNFGMLRKMG | binds weakly
11 | CCL15 (ligand, UniProt Q16663 22-113) QFTNDAETELMMSKLPLENPVVLNSFHFAADCCTSYISQSIPCSLMKSYFETSSECSKPGVIFLTKKGRQVCAKPSGPGVQDCMKKLKPYSI | no binding (tested: 100 nM)
12 | CCL14 (66 aa) (ligand, UniProt Q16627 20-93) TKTESSSRGPYHPSECCFTYTTYKIPRQRIMDYYETNSQCSKPGIVFITKRGHSVCTNPSDKWVQDYIKDMKEN | no binding (tested: 100 nM)
13 | CCL14 (72 aa) (ligand, UniProt Q16627 20-93) TKTESSSRGPYHPSECCFTYTTYKIPRQRIMDYYETNSQCSKPGIVFITKRGHSVCTNPSDKWVQDYIKDMKEN | no binding (tested: 100 nM)
14 | CCL23 (ligand, UniProt P55773 22-120) RVTKDAETEFMMSKLPLENPVLLDRFHATSADCCISYTPRSIPCSLLESYFETNSECSKPGVIFLTKKGRRFCANPSDKQVQVCMRMLKLDTRIKTRKN | no binding (tested: 100 nM)
